Results published in the supplement of paper PMC4683952.
This is one part of the list. Cut-off read from the data, not from the text of the source: active = 2 or more and inactive = the rest. Repeats in this data set agree poorly, so a single value says little.

System: Lgr5 (MarsCy1-Lgr5-EGFP, U2OS)
Assay: cell-surface Lgr5 expression (SCi1 fluorescence, background-subtracted) relative to WT DMSO (fold of DMSO control); higher = more Lgr5 at the plasma membrane
Conditions: U2OS MarsCy1-Lgr5-EGFP stable; treatment time: overnight; library: ActiProbe-5K (TimTec); 25 µM

Row | SMILES | cell-surface Lgr5 expression
1 | O=S(=O)(Nc1ccc2c(c1)oc1ccccc12)c1ccc2ccccc2c1 | inactive: 1.08
2 | Nc1nonc1C(=O)N1CCCC1 | inactive: 1.14
3 | O=C(O)c1nn2cc(CCO)cnc2c1Cl | inactive: 1.45
4 | Cc1sc(NC(=O)CSc2sc3c(=O)[nH]c(=O)[nH]c3c2C#N)c(C#N)c1C | inactive: 1.32
5 | Cc1ccc(-c2cn3cc(C)ccc3n2)cc1 | inactive: 0.937
6 | O=C(C1=C(O)C(=O)N(CCN2CCOCC2)C1c1cccs1)c1cccs1 (centres undefined) | inactive: 1.28
7 | Cc1cc(C)c(CSc2ncnc3[nH]cnc23)c(C)c1 | inactive: 1.23
8 | Cc1ccc(/C=C(/C#N)C(N)=S)o1 | inactive: 1.68
9 | Cc1cc2c(c(=S)[nH]1)C(=O)O/C2=C/c1c(C)[nH]c(C#N)c1C | inactive: 1.6
10 | CC(C)(C)C1CCc2c(sc(NC(=O)C3CCCO3)c2C(N)=O)C1 (centres undefined) | inactive: 1.63
11 | S=c1sc2c(Cl)ncnc2n1-c1ccccc1 | inactive: 0.357
12 | CCCCCCCCCn1cc[n+](CCCCCCCCC)c1C.[Br-] | inactive: 0.36
13 | O=[N+]([O-])c1ccc2c(c1)Cc1cc([N+](=O)[O-])ccc1-2 | inactive: 1.09
14 | O=C(CCCC(=O)N/N=C/c1cccs1)N/N=C\c1cccs1 | inactive: 1.08
15 | COC(=O)C1=CN(CC2CCCO2)C=C(C(=O)OC)C1c1cccs1 (centres undefined) | inactive: 1.01
16 | NCCOc1ccc2oc3ccccc3c2c1 | inactive: 1.37
17 | OC12CCCCC1C(c1ccc3c(c1)OCO3)NCC2 (centres undefined) | inactive: 1.33
18 | Cn1c(=O)[nH]c2cncc([N+](=O)[O-])c21 | inactive: 1.15
19 | CS(=O)(=O)c1ccc(CN)cc1 | inactive: 1.38
20 | CC1(C(F)(F)F)NC(=O)NC1=O (centres undefined) | inactive: 0.986
21 | Cc1ccc(/C=N/n2c(S)nnc2-c2ccco2)s1 | inactive: 1.05
22 | CC1=C(C(=O)OC(C)C)C(c2sccc2C)NC(=O)N1 (centres undefined) | inactive: 1.35

Row | SMILES | cell-surface Lgr5 expression
23 | COc1ccc2nc(Sc3nccn3C)sc2c1 | inactive: 1.39
24 | Nc1ccc(Nc2ccc(N)cc2S(=O)(=O)O)cc1 | inactive: 1.2
25 | NCCCc1nc2cc(F)ccc2[nH]1 | inactive: 0.653
26 | O/N=C\c1cc(Br)cs1 | inactive: 0.939
27 | O=C1COc2cc(Cl)ccc2N1 | inactive: 1.11
28 | CC(SCc1n[nH]c(=O)[nH]1)C(=O)Nc1nccs1 (centres undefined) | inactive: 1.06
29 | CCCSc1nc2[nH]c(=O)cc(O)c2s1 | inactive: 1.22
30 | Nc1ncnc2[nH]c(SCc3nc4ccccc4[nH]3)nc12 | inactive: 1.09
31 | Cc1sc2ccc(O)cc2[n+]1CCCS(=O)(=O)[O-] | inactive: 1.07
32 | CCC1(C)CCC(C)C(OC)O1 (centres undefined) | inactive: 1.3
33 | c1(/n(c2cc(OC)ccc2s1)CC)=C(\C#N)C#N | inactive: 0.888
34 | O=C1NN(c2ccc(Cl)c(Cl)c2)C(=O)/C1=C1\C(=O)Nc2ccc(Br)cc21 | inactive: 0.96
35 | O=S(=O)(NCC1CC2CCC1C2)c1ccc2c(c1)OCCO2 (centres undefined) | inactive: 1.22
36 | Cn1c(C(c2ccccc2)c2ccccc2)n[nH]c1=S | inactive: 1.16
37 | C=CCN1C(=O)NOC(N)=C1C#N | inactive: 0.826
38 | CCCCCC1CC(C/C(C)=N/NC(N)=S)C(=O)O1 (centres undefined) | inactive: 1.44
39 | O=C(Cn1ccc([N+](=O)[O-])n1)n1cc(Cl)cn1 | inactive: 0.968
40 | CN1c2ccccc2C(C)(C)C12C=Cc1cc(Br)cc(Br)c1O2 (centres undefined) | inactive: 0.733
41 | CCNc1nc(C#N)nc(N2CCOCC2)n1 | inactive: 1.02
42 | O=[N+]([O-])c1c(-c2cnoc2)n[nH]c1-c1cnoc1 | inactive: 1.04
43 | CC1(C)O[C@@H]2[C@H](O1)[C@@H]1C[C@@H]2NC1=O | inactive: 1.34
44 | C=CC(=C)CC(NC)c1ccccc1.Cl (centres undefined) | inactive: 1.16

Pulled by compound from above (six):
Row | SMILES | cell-surface Lgr5 expression
43 | CC1(C)O[C@@H]2[C@H](O1)[C@@H]1C[C@@H]2NC1=O | inactive: 1.34
34 | O=C1NN(c2ccc(Cl)c(Cl)c2)C(=O)/C1=C1\C(=O)Nc2ccc(Br)cc21 | inactive: 0.96
31 | Cc1sc2ccc(O)cc2[n+]1CCCS(=O)(=O)[O-] | inactive: 1.07
25 | NCCCc1nc2cc(F)ccc2[nH]1 | inactive: 0.653
36 | Cn1c(C(c2ccccc2)c2ccccc2)n[nH]c1=S | inactive: 1.16
32 | CCC1(C)CCC(C)C(OC)O1 (centres undefined) | inactive: 1.3

Next structures

Row | SMILES | cell-surface Lgr5 expression
45 | COc1cc(OC)c2c(C3NC(N)=Nc4nc5ccccc5n43)cn(C)c2c1 (centres undefined) | inactive: 1.13
46 | CCNC(=S)N1CCOCC1 | inactive: 1.43
47 | Nc1nonc1-c1noc(-c2ccc(Br)cc2)n1 | inactive: 1.16
48 | Cn1cccc1C1(C(F)(F)F)NCCNC1=O (centres undefined) | inactive: 0.895
49 | COc1ccc(N/N=C2/C(=N)NN=C2N)cc1 | inactive: 0.762
50 | COc1nc(Nc2ccc(OC(F)(F)F)cc2)nc(NC2CC2)n1 | inactive: 1.29
51 | OC(CSCc1ccc(Br)cc1)C(O)CSCc1ccc(Br)cc1 (centres undefined) | inactive: 0.965
52 | OCCC#CCN1CCCCC1 | inactive: 1.38
53 | CN1CCN(CCCCN)CC1 | inactive: 1.15
54 | CCCc1n[nH]c2c1C1(CCC3(CC1)OCCO3)C(C#N)=C(N)O2 | inactive: 1.18
55 | CC(C)NC(=O)NC(C)(C)COC12CC3CC(CC(C3)C1)C2 | inactive: 1.12
56 | Cn1cccc1/C=N\NC(=O)c1cnccn1 | inactive: 1.09
57 | CC1(C)Nc2ccccc2-c2nnnn21 | inactive: 1.23
58 | CCCCc1sc(/C=C(\C#N)C(N)=S)cc1[N+](=O)[O-] | inactive: 0.987
59 | c1cnc(SCc2ccc3nsnc3c2)nc1 | inactive: 0.839
60 | Nc1cc(-c2ccco2)[nH]n1 | inactive: 0.871
61 | O=C1OC(c2ccc(Br)cc2)=N/C1=C\c1ccc(Br)o1 | inactive: 1.39
62 | Cc1ccc(/C=C2\CCCC(C)(C)C2=O)o1 | inactive: 1.27
63 | N#CC1=C(N)OC2=C(CNC/C2=C/c2cccs2)C1c1cccs1 (centres undefined) | inactive: 1.24
64 | O.O=C1Nc2ccc(S(=O)(=O)[O-])cc2C1=O.[Na+] | inactive: 1.37
65 | Cc1nn(CN2CCCCC2)c(=S)s1 | inactive: 1.02
66 | Cc1sc(N)c(C#N)c1CCC#N | inactive: 1.08

Row | SMILES | cell-surface Lgr5 expression
67 | C#CCn1cc(/C=C2/S/C(=N\C)N(C)C2=O)c2ccccc21 | inactive: 1.9
68 | COc1cc(/C=N\O)cc(OC)c1OC | inactive: 0.917
69 | Clc1cccc(/N=C\c2cc3ccccc3nc2Cl)c1Cl | inactive: 1.55
70 | CCOC(=O)N1CCC2(CC1)C(C#N)=C(C)Nc1oc(C)nc12 | inactive: 1.22
71 | O=C(C[n+]1cccc2ccccc21)c1ccc(F)cc1.[Br-] | inactive: 1.32
72 | O=C(O)c1cnn2c(C(F)(F)F)cc(C3CC3)nc12 | inactive: 0.803
73 | Cc1nn(C)cc1-c1ccno1 | inactive: 1.28
74 | CN(C1CCCCC1)S(=O)(=O)c1cc(Cl)ccc1Cl | inactive: 1.39
75 | Cn1cnnc1SCC(=O)Nc1sc2c(c1C#N)CCC2 | inactive: 1.14
76 | Cc1cc(C)nc(SCCS(=O)c2ccc(C(C)(C)C)cc2)n1 (centres undefined) | inactive: 0.933
77 | Cc1ccc(-c2cc(C3(O)CCC4COC3O4)on2)cc1 (centres undefined) | inactive: 1.08
78 | N/C(CSc1nc(SC/C(N)=N\O)ns1)=N\O | inactive: 1.01
79 | OCc1nc2cc(-c3ccc4[nH]c(CO)nc4c3)ccc2[nH]1 | inactive: 1.23
80 | Sc1nnc2[nH]c3ccccc3c2n1 | inactive: 0.767
81 | Cn1c(-c2ccco2)nn(CN2CCCCC2)c1=S | inactive: 1.11
82 | FC(F)(F)c1ccccc1CNCC1CCCO1 (centres undefined) | inactive: 0.981
83 | Sc1nccn1-c1ccccc1 | inactive: 1.11
84 | OC(c1nc2ccccc2[nH]1)C(O)c1nc2ccccc2[nH]1 (centres undefined) | inactive: 1.25
85 | CC(C)(C)N1CC(CO)([N+](=O)[O-])C1 | inactive: 1.18
86 | CC(C)(C)C(=O)CSc1ncnc2nc[nH]c12 | inactive: 1.47
87 | O=S1(=O)CC(Br)C(Br)C1 (centres undefined) | inactive: 1.44
88 | S=c1nc2[nH]c3ccccc3c2n[nH]1 | inactive: 1.18

Row | SMILES | cell-surface Lgr5 expression
89 | Cc1ccsc1/C=N/N=C(/N)c1nonc1N | inactive: 0.927
90 | Nc1cc(Br)cc(Br)c1 | inactive: 0.993
91 | O=C1c2ccccc2C(=O)c2c1cc(S(=O)(=O)[O-])c(O)c2O.[Na+] | inactive: 0.996
92 | CC1CN(S(=O)(=O)c2ccc3oc4ccccc4c3c2)CC(C)O1 (centres undefined) | inactive: 1.15
93 | Sc1nnc(C2CCCCC2)n1/N=C\c1ccccn1 | inactive: 1.15
94 | Cl.Cl.N=C(N)SCc1csc(N)n1 | inactive: 1.14
95 | Cc1ccc2c(c1)-c1c(sn(-c3ccc(C)c(C)c3)c1=S)C(C)(C)N2Cc1ccccc1 | inactive: 1
96 | c12c(nc[nH]2)ncnc1NC\C=C(/C)C | inactive: 0.867
97 | c1nc(N2CCOCC2)c2c3c(sc2n1)CCCC3 | inactive: 0.709
98 | CC1CCN(c2nc3c(N)ncnc3n2C2OC(CO)C(O)C2O)CC1 (centres undefined) | inactive: 0.98
99 | O=[N+]([O-])c1cc[n+]([O-])c(Br)c1 | inactive: 0.273
100 | C#CCN1C(=O)C2(NC(CCSC)C3C(=O)N(c4ccccc4)C(=O)C32)c2ccccc21 (centres undefined) | inactive: 1.11
101 | Nc1nc2c(s1)C(c1ccsc1)CC(=O)N2 (centres undefined) | inactive: 0.854
102 | CCCCSc1nnc(C(F)F)n1/N=C/c1cnn(C)c1C | inactive: 1.51
103 | CNC(=O)c1nn(C)cc1NS(=O)(=O)c1cnn(C)c1C | inactive: 0.938
104 | Cn1cnnc1SCC(=O)c1cccs1 | inactive: 1.14
105 | COC(=O)/C=C(/C)NCCN/C(C)=C\C(=O)OC | inactive: 1.2
106 | Cc1sc2nc[nH]c(=O)c2c1C | inactive: 1.25
107 | CC1(C)CC(=O)C(C(C2=C(O)CC(C)(C)CC2=O)C(O)CO)C(=O)C1 (centres undefined) | inactive: 0.958
108 | CC12C=CC(=O)C=C1CCC1C2C(=O)CC2(C)C1CCC2(O)C(=O)CO (centres undefined) | inactive: 1.32
109 | CCOC(=O)c1csc2c1CCC(C(C)(C)C)C2 (centres undefined) | inactive: 1.1

Taken from above:
cell-surface Lgr5 expression with Cc1cc(C)nc(SCCS(=O)c2ccc(C(C)(C)C)cc2)n1 (centres undefined) reads inactive: 0.933
cell-surface Lgr5 expression with Cl.Cl.N=C(N)SCc1csc(N)n1 reads inactive: 1.14
